Reference: the supplement of paper PMC12067093, “Discovery and optimisation of a covalent ligand for TRIM25 and its application to targeted protein ubiquitination” (Chemical Science, 2025)
The list shows a part of the results.

Chains of the proteins cited; added tags and fusions are not shown. Lines headed by an entry give the natural chain unless they say otherwise; changes in a name come on top.
UniProt P16219: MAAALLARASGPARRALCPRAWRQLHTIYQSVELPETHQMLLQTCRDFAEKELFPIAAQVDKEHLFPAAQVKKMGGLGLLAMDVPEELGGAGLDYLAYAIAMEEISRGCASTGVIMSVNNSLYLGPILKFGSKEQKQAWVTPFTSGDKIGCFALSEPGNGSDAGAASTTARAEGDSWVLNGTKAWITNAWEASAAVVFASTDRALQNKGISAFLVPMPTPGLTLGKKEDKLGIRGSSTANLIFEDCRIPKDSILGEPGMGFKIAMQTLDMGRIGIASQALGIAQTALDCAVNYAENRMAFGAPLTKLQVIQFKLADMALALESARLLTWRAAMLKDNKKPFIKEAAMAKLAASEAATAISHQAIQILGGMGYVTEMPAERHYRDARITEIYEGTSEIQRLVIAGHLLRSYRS
UniProt Q9NUJ1: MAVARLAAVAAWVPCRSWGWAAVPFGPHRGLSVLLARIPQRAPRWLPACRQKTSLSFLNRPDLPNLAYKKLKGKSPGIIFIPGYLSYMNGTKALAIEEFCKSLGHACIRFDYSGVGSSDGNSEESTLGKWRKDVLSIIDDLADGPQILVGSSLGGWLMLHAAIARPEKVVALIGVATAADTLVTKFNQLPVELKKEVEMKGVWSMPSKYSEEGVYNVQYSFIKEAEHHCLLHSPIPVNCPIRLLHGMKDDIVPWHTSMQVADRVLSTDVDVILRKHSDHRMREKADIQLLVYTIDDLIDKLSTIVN
UniProt Q99798: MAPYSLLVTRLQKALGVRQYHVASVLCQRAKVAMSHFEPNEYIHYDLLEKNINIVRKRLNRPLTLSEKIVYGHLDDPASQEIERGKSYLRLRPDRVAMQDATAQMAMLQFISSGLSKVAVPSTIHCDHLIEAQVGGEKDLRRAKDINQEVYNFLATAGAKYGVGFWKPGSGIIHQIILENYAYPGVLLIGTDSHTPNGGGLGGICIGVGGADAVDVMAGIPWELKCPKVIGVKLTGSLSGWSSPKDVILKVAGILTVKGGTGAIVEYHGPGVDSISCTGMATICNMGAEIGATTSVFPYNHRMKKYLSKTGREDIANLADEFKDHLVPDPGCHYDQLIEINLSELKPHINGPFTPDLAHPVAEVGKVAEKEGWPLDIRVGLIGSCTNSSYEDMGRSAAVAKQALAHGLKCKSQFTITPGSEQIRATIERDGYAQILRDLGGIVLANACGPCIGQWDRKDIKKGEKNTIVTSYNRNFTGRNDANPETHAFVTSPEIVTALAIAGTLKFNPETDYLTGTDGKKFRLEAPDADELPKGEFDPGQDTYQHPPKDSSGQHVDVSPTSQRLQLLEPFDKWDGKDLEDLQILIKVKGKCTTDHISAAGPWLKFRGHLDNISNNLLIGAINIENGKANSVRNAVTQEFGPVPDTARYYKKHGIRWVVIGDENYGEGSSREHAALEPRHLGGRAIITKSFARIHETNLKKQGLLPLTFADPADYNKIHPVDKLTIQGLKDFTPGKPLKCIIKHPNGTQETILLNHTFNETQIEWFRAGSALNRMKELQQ
UniProt Q9NUQ8: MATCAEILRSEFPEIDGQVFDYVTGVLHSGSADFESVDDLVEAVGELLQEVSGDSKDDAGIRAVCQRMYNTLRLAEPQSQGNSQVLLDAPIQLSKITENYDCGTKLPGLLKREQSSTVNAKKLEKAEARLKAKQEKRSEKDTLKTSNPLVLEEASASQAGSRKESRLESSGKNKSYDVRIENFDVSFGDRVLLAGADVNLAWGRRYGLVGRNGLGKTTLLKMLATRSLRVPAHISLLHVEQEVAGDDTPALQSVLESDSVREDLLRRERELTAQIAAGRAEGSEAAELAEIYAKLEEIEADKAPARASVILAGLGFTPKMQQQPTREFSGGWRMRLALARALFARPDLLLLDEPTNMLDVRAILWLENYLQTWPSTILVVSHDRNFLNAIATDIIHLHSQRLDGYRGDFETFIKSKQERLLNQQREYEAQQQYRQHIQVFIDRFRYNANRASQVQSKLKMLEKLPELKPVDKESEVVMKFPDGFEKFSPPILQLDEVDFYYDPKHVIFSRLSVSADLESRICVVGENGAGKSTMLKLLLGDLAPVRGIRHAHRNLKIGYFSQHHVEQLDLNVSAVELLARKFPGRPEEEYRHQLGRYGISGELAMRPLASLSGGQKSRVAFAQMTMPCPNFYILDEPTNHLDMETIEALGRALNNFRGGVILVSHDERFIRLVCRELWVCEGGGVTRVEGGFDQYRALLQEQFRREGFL
UniProt Q96AP0: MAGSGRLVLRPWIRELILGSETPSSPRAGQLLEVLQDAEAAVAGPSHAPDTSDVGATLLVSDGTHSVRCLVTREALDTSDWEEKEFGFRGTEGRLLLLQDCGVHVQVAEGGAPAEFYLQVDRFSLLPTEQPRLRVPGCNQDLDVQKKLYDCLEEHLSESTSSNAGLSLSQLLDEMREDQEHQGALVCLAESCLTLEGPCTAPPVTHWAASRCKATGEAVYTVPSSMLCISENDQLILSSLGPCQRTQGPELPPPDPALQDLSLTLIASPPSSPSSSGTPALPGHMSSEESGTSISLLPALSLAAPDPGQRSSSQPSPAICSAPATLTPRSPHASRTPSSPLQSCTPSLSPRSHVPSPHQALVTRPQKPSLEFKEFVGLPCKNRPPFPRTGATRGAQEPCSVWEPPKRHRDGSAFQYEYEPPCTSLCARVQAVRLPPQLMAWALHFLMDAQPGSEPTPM
UniProt O00154: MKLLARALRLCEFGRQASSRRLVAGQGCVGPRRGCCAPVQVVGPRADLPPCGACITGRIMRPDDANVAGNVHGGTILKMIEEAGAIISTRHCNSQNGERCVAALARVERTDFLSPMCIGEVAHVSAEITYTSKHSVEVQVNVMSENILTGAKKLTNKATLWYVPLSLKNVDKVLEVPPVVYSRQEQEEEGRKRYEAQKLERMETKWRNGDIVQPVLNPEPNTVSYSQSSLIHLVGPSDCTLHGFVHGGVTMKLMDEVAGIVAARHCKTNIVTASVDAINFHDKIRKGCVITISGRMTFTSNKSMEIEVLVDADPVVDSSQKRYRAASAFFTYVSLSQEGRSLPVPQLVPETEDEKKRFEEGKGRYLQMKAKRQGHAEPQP
UniProt P49588, whole entry, looked up: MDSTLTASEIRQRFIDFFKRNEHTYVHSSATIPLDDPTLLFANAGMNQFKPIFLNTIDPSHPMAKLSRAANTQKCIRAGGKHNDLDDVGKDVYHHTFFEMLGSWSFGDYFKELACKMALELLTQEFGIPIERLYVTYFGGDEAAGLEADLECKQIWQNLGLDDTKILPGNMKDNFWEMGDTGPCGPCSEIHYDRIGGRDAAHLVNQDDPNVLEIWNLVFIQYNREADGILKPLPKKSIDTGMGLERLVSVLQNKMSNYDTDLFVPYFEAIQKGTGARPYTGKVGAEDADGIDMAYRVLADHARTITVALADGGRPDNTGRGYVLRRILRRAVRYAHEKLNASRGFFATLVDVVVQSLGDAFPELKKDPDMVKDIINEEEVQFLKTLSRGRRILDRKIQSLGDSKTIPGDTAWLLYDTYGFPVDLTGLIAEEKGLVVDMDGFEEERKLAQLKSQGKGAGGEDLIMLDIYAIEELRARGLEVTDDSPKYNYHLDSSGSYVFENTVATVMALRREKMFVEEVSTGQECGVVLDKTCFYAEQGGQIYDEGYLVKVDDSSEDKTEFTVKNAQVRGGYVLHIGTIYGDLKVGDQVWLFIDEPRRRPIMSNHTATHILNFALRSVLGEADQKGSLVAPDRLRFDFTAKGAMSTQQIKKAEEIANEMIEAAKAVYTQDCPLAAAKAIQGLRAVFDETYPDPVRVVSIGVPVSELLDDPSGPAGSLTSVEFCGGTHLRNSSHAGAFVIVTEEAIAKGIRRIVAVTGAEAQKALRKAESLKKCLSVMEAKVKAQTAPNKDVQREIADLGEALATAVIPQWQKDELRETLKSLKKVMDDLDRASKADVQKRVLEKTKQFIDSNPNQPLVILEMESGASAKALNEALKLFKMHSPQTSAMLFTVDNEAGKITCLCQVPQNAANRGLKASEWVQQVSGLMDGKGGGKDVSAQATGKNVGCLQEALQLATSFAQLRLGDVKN
UniProt Q9H845: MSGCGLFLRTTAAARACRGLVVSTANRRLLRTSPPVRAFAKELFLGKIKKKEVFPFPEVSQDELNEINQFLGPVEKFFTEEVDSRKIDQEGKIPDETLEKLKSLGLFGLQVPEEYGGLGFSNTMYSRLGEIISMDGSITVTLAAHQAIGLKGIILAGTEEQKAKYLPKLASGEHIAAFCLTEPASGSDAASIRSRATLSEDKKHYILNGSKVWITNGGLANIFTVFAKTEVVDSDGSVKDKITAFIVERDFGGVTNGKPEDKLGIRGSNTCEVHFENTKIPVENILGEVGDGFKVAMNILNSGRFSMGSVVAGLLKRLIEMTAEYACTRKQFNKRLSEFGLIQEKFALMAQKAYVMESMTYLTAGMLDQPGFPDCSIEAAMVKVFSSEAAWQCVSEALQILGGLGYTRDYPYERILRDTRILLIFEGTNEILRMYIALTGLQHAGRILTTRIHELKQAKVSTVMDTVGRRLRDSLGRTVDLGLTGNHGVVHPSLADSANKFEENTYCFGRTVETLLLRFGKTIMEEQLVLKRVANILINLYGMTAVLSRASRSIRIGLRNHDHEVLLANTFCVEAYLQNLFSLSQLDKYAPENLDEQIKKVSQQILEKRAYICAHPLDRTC
UniProt O95870: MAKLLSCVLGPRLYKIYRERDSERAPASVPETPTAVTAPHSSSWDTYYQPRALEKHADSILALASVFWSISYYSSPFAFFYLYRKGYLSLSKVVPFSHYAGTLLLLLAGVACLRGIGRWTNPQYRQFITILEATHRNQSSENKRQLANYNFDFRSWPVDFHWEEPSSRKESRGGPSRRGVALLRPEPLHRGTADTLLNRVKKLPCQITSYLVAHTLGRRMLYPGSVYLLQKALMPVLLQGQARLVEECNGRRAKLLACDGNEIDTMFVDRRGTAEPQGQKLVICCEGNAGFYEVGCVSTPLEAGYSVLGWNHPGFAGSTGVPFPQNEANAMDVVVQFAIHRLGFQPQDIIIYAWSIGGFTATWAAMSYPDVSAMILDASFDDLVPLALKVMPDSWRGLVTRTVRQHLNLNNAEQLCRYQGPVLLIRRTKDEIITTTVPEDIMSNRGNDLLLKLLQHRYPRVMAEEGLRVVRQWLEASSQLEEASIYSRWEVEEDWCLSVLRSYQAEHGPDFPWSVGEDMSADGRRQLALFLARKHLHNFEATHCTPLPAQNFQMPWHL
UniProt Q9UKV3: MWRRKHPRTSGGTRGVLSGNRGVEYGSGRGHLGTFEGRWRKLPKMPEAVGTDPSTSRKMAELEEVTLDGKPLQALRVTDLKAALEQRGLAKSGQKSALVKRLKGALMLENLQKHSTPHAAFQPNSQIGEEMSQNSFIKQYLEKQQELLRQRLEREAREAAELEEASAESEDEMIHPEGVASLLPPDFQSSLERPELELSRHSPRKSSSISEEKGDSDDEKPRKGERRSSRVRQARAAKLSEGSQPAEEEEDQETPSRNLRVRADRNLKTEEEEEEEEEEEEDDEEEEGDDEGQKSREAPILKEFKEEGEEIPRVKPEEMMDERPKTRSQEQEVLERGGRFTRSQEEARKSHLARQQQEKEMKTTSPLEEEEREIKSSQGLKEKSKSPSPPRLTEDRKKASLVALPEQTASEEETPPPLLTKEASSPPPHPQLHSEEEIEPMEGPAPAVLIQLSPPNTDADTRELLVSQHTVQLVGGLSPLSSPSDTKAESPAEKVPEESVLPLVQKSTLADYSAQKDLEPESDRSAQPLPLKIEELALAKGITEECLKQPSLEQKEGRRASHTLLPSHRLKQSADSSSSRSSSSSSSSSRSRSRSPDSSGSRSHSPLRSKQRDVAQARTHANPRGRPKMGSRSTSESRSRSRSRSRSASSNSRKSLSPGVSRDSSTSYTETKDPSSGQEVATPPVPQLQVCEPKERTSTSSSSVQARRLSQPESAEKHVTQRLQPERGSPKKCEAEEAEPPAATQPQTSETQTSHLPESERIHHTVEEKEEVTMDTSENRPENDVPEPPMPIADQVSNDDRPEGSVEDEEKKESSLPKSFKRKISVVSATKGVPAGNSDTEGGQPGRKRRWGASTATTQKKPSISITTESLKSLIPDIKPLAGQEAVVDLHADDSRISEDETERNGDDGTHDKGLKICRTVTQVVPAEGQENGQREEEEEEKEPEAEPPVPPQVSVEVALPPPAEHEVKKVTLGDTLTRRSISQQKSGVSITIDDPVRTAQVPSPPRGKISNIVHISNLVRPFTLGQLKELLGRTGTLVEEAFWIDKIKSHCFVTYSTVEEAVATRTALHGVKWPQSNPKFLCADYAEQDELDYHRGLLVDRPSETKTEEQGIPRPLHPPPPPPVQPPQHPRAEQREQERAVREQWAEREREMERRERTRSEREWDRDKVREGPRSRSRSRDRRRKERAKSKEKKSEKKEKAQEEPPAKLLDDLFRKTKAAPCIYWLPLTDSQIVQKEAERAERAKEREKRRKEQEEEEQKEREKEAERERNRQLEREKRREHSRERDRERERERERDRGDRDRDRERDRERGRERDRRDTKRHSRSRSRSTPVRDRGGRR

compound: Cc1cc(ccc1-c1ccccc1)C(=O)N1CCCN(CC1)C(=O)CCl [compound 10]; test: probe-labelled cysteine peptide fold change vs DMSO (competition) (log2 fold change); higher = less target engagement (more negative = stronger competition); details: 10 µM; THP-1; incubation time: 4 h
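Also: competitive profiling in live THP-1 cells: cysteine peptides tagged with an iodoacetamide desthiobiotin (IA-DTB) probe, intensity after compound treatment relative to DMSO-treated cells.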

Point of comparison: “ABCF2_Q9UG63_161_TPLHCVMEVDTER (UniProt Q9UG63)”, “probe-labelled cysteine peptide fold change” value -0.174. Against it:
- ACADS_P16219_109_GCASTGVIMSVNNSLYLGPILK (UniProt P16219) — higher, 0.363
- ACADVL_P49748_156_ELGAFGLQVPSELGGVGLCNTQYAR (UniProt P49748) — lower, -0.263
- ACAA1_P09110_148_NGSYDIGMACGVESMSLADR (UniProt P09110) — lower, -0.314
- ACAP2_Q15057_329_FCFEVVSPTK (UniProt Q15057) — higher, 0.23
- ABHD10_Q9NUJ1_239_EAEHHCLLHSPIPVNCPIR (UniProt Q9NUJ1) — higher, -0.0294
- ABL1_P00519-2_39_HGGPHCNVFVEHEALQRPVASDFEPQGLSEAAR (UniProt P00519) — lower, -0.213
- ABRAXAS2_Q15018_224_VQAVCADVEK (UniProt Q15018) — higher, 0.115
- ACO2_Q99798_126_VAVPSTIHCDHLIEAQVGGEK (UniProt Q99798) — higher, -0.0826
- ACAT2_Q9BWD1_148+158_IGEMPLTDSILCDGLTDAFHNCHMGITAENVAK (UniProt Q9BWD1) — higher, -0.165
- ABCF3_Q9NUQ8_680_ELWVCEGGGVTR (UniProt Q9NUQ8) — higher, -0.0969
- ACLY_P53396_229_VDATADYICK (UniProt P53396) — higher, 0.116
- ACACA_Q13085_378_DCSVQR (UniProt Q13085) — higher, 0.0953
- AAMP_Q13685_130_LSDGELLFECAGHK (UniProt Q13685) — higher, 0.0672
- ACOT8_O14734_302_QDGVLAVTCAQEGVIR (UniProt O14734) — higher, -0.00349
- ACBD6_Q9BR61_80_VGNCNTPKPSFFDFEGK (UniProt Q9BR61) — higher, 0.0959
- ACD_Q96AP0_466_EFVGLPCK (UniProt Q96AP0) — higher, -0.126
- ABCE1_P61221_231_FACAVVCIQK (UniProt P61221) — higher, 0.178
- ABCF1_Q8NE71_741_FGLESHAHTIQICK (UniProt Q8NE71) — higher, 0.208
- AAK1_Q2M2I8_156_LQTGFTENEVLQIFCDTCEAVAR (UniProt Q2M2I8) — higher, -0.149
- ABHD17B_Q5VST6_68_DAIECFMTR (UniProt Q5VST6) — higher, 0.112
- ACLY_P53396_20_FICTTSAIQNR (UniProt P53396) — higher, -0.016
- ACOT7_O00154_288_KGCVITISGR (UniProt O00154) — higher, 0.00543
- ACADVL_P49748_237_TSAVPSPCGK (UniProt P49748) — higher, -0.143
- ABHD10_Q9NUJ1_229_EAEHHCLLHSPIPVNCPIR (UniProt Q9NUJ1) — higher, 0.0491
- ACADVL_P49748_477_LFVALQGCMDK (UniProt P49748) — lower, -0.223
- ACACA_Q13085_1009_CVFALR (UniProt Q13085) — higher, 0.157
- ACACA_Q13085_1230_MSFSSNLNHYGMTHVASVSDVLLDNSFTPPCQR (UniProt Q13085) — higher, 0.0438
- AARS_P49588_671_AVYTQDCPLAAAK (UniProt P49588) — higher, 0.0633
- ACOT4_Q8N9L9_121_LLCQAQHER (UniProt Q8N9L9) — higher, -0.137
- ACAD9_Q9H845_613_RAYICAHPLDR (UniProt Q9H845) — lower, -0.264
- ABCF3_Q9NUQ8_102_ITENYDCGTK (UniProt Q9NUQ8) — higher, -0.14
- ABCB1_P08183_1074_KGQTLALVGSSGCGK (UniProt P08183) — higher, -0.121
- ABHD16A_O95870_416_QHLNLNNAEQLCR (UniProt O95870) — higher, -0.0924
- AAAS_Q9NRG9_321_VWEAQMWTCER (UniProt Q9NRG9) — lower, -0.206
- ACOT7_O00154_92_HCNSQNGER (UniProt O00154) — lower, -0.182
- ACIN1_Q9UKV3_1223_AAPCIYWLPLTDSQIVQK (UniProt Q9UKV3) — higher, 0.264
- ACO2_Q99798_332_DHLVPDPGCHYDQLIEINLSELK (UniProt Q99798) — lower, -0.197

same assay, conditions: 50 µM; THP-1; incubation time: 4 h

Point of comparison: “ACADVL_P49748_477_LFVALQGCMDK (UniProt P49748)”, “probe-labelled cysteine peptide fold change” value 0.311. Against it:
- ACADS_P16219_109_GCASTGVIMSVNNSLYLGPILK (UniProt P16219) — lower, 0.27
- ACADVL_P49748_156_ELGAFGLQVPSELGGVGLCNTQYAR (UniProt P49748) — higher, 0.318
- ACAA1_P09110_148_NGSYDIGMACGVESMSLADR (UniProt P09110) — lower, -0.432
- ACAP2_Q15057_329_FCFEVVSPTK (UniProt Q15057) — lower, 0.177
- ABHD10_Q9NUJ1_239_EAEHHCLLHSPIPVNCPIR (UniProt Q9NUJ1) — lower, 0.164
- ABL1_P00519-2_39_HGGPHCNVFVEHEALQRPVASDFEPQGLSEAAR (UniProt P00519) — lower, -0.213
- ABRAXAS2_Q15018_224_VQAVCADVEK (UniProt Q15018) — lower, 0.0893
- ACO2_Q99798_126_VAVPSTIHCDHLIEAQVGGEK (UniProt Q99798) — lower, -0.0563
- ACAT2_Q9BWD1_148+158_IGEMPLTDSILCDGLTDAFHNCHMGITAENVAK (UniProt Q9BWD1) — lower, -0.295
- ABCF3_Q9NUQ8_680_ELWVCEGGGVTR (UniProt Q9NUQ8) — lower, 0.141
- ACLY_P53396_229_VDATADYICK (UniProt P53396) — lower, 0.0189
- ACACA_Q13085_378_DCSVQR (UniProt Q13085) — lower, -0.0564
- AAMP_Q13685_130_LSDGELLFECAGHK (UniProt Q13685) — lower, 0.0581
- ACOT8_O14734_302_QDGVLAVTCAQEGVIR (UniProt O14734) — lower, 0.0849
- ACBD6_Q9BR61_80_VGNCNTPKPSFFDFEGK (UniProt Q9BR61) — lower, -0.579
- ACD_Q96AP0_466_EFVGLPCK (UniProt Q96AP0) — lower, -0.748
- ABCE1_P61221_231_FACAVVCIQK (UniProt P61221) — lower, 0.254
- ABCF1_Q8NE71_741_FGLESHAHTIQICK (UniProt Q8NE71) — lower, -0.00531
- AAK1_Q2M2I8_156_LQTGFTENEVLQIFCDTCEAVAR (UniProt Q2M2I8) — lower, 0.226
- ABHD17B_Q5VST6_68_DAIECFMTR (UniProt Q5VST6) — lower, 0.0179
- ACLY_P53396_20_FICTTSAIQNR (UniProt P53396) — lower, -0.193
- ACOT7_O00154_288_KGCVITISGR (UniProt O00154) — lower, -0.136
- ACADVL_P49748_237_TSAVPSPCGK (UniProt P49748) — lower, -0.259
- ABHD10_Q9NUJ1_229_EAEHHCLLHSPIPVNCPIR (UniProt Q9NUJ1) — lower, 0.0493
- ACACA_Q13085_1009_CVFALR (UniProt Q13085) — lower, 0.302
- ACACA_Q13085_1230_MSFSSNLNHYGMTHVASVSDVLLDNSFTPPCQR (UniProt Q13085) — lower, -0.0741
- ABCF2_Q9UG63_161_TPLHCVMEVDTER (UniProt Q9UG63) — lower, -0.0244
- AARS_P49588_671_AVYTQDCPLAAAK (UniProt P49588) — lower, 0.0515
- ACOT4_Q8N9L9_121_LLCQAQHER (UniProt Q8N9L9) — lower, -0.343
- ACAD9_Q9H845_613_RAYICAHPLDR (UniProt Q9H845) — lower, 0.131
- ABCF3_Q9NUQ8_102_ITENYDCGTK (UniProt Q9NUQ8) — lower, -0.285
- ABCB1_P08183_1074_KGQTLALVGSSGCGK (UniProt P08183) — lower, -0.0827
- ABHD16A_O95870_416_QHLNLNNAEQLCR (UniProt O95870) — lower, -0.0118
- AAAS_Q9NRG9_321_VWEAQMWTCER (UniProt Q9NRG9) — lower, -0.073
- ACOT7_O00154_92_HCNSQNGER (UniProt O00154) — lower, -0.112
- ACIN1_Q9UKV3_1223_AAPCIYWLPLTDSQIVQK (UniProt Q9UKV3) — lower, 0.0755
- ACO2_Q99798_332_DHLVPDPGCHYDQLIEINLSELK (UniProt Q99798) — higher, 0.344
